At least one compound was matched to its structure with a doubt left.
How the values were obtained:
[1] = test system: stably Zic5 gene-expressed line (SK-MEL-28 cells); assay: Annexin V-positive cells, stably Zic5 gene-expressed line; format: cell-based, human; settings: PLX4032 10 μM 48 hours; Zic5 gene overexpression vs Flag line
Experimental: PLX4032 was dissolved in DMSO to be used as a solution, and a line added to an equal amount of DMSO (DMSO treatment) was used as a control. The result of a relative cell number (n=3) in which the number of cells of the cells in which the stably Flag-expressed line was treated with PLX4032 (in the drawing, “+” on the “PLX4032” section, the same applies to the following examples), or the cells treated with DMSO (in the drawing, “−” on the “PLX4032” section, the same applies to the following examples) was set to 1 is shown in FIG. 30. The statistical difference was determined by the Tukey's multiple comparisons of means test (**: P<0.01, *: P<0.05). […]
The percentage of Annexin V-positive cells was measured as follows. […] Next, a stained state of the incubated cells was analyzed by using DAPI filter and FITC filter of an imaging cytometer, “In Cell Analyzer 2000” (manufactured by GE healthcare). Percentage (%) of […] was determined by In Cell Analyzer Workstation 3.7 (manufactured by GE healthcare). The statistical difference was determined by the Tukey's multiple comparisons of means test (**: P<0.01, *: P<0.05).
The statistical difference was determined by the Tukey's multiple comparisons of means test (**: P<0.01, *: P<0.05).

[2] = test system: stably Zic5 gene-expressed line (SK-MEL-28 cells); assay: Cell number after PLX4032 treatment, stably Zic5 gene-expressed line; format: cell-based, human; settings: 10 μM for 48 hours; stably Zic5 gene-expressed line vs stably Flag-expressed line
[3] = test system: phosphorylated ERK1/2 (Thr202/204) (pERK); assay: Western blotting of phosphorylated ERK1/2; format: cell-based, human; settings: for level of pERK after PLX4032 treatment: 5 μM for 48 hours
Experimental: Western blotting was performed in the same manner as above except that anti-pAKT antibody (manufactured by Cell Signaling), anti-AKT antibody (manufactured by Cell Signaling), anti-pERK antibody (manufactured by Cell Signaling), anti-ERK antibody (manufactured by Cell Signaling), and anti-β-actin antibody (manufactured by Sigma) were used.
vemR-1 to 3 cells and HT144 cells were treated with DMSO or PLX4032 solution (which was dissolved in DMSO to become 5 μM) for 48 hours, and the level of pAKT, AKT, pERK, ERK, and β-actin of these cells was assessed by western blotting in the same manner as Example 8.
A375 cells were treated in a medium in which a concentration of a FAK inhibitor I (manufactured by Calbiochem) was 0, 1, 2.5, or 5 μM for 24 hours, and the level of ZIC5, pro-PDGFD, pERK, and β-actin was measured by western blotting. Western blotting was performed in the same manner as above except that anti-ZIC5 antibody (manufactured by Aviva systems biology), anti-PDGFD antibody (manufactured by Santa Cruz), anti-pERK antibody (manufactured by Cell Signaling), and anti-β-actin antibody (manufactured by Sigma) were used.
A375 cells were treated in a medium in which a concentration of Interleukin-6 (IL-6) (manufactured by Novus Biologicals) was 0, 10, or 20 ng/mL for 24 hours, and then western blotting was performed to assess the level of ZIC5, pro-PDGFD, pSTAT3, STAT3, and GAPDH. Western blotting was performed in the same manner as above except that anti-ZIC5 antibody (manufactured by Aviva systems biology), anti-pERK antibody (manufactured by Cell Signaling), anti-pSTAT3 antibody (manufactured by Cell Signaling), STAT3 antibody (manufactured by BD Biosciences), and anti-GAPDH antibody (manufactured by Cell Signaling) were used.
The obtained cells were treated with the BRAF inhibitor, PLX4032 or treated with DMSO, and then the level of pERK was accessed by western blotting in the same manner as Example 7. […]

[4] = test system: vemR-1 to 5 cells; settings: vemR-1 to 5 vs A375 cells; 0, 2, or 4 μM for 48 hours
[5] = test system: phosphorylated AKT (Ser473) (pAKT); assay: Western blotting of phosphorylated AKT; format: cell-based, human; settings: vemR-1 to 3 cells (HT144-derived); 5 μM for 48 hours

CCCS(=O)(=O)Nc1ccc(F)c(C(=O)c2c[nH]c3ncc(-c4ccc(Cl)cc4)cc23)c1F [PLX4032, vemurafenib]
induction of apoptosis (percentage of Annexin V-positive cells) [1]: significantly reduced
decrease in the number of cells by PLX4032 treatment (relative cell number) [2]: alleviated
level of pERK after PLX4032 treatment ([3]; vemR-1 to 3 cells (HT144-derived)): reactivation of both of AKT and ERK was observed
level of pERK after PLX4032 treatment ([3]; vemR-1 to 5 cells (A375-derived)): reactivation of ERK was observed
pERK level (inactivation of ERK) ([3]; vemR-3 cells, PLX4032 or DMSO treatment, siRNA vs siNeg): not induced
width of decrease in relative cell number by PLX4032 treatment [4]: smaller than A375 cells
level of pAKT after PLX4032 treatment [5]: reactivation of both of AKT and ERK was observed

Source: patent US10669545B2, “Tumor cell malignant transformation suppressor and anti-tumor agent” (JAPAN SCIENCE AND TECHNOLOGY AGENCY, priority 2015, dated 2020)
